# From patent publication US4322545A, “Benzoic acid esters” (priority 1981, dated 1982)
# Experiment: Odor, direct comparison
smiles,measurement,value
"CCCCCCCCCCCCCCOC(=O)c1ccccc1 [Myristyl benzoate, myristyl (C14) benzoate]",Fragrance level to overcome inherent odor of the formula and establish a detectable level of fragrance,> 0.25%
